From US11891348B2, “Cycloheptylamine derivatives as anti-diabetic agents” (UNITED ARAB EMIRATES UNIVERSITY, priority 2020, dated 2024)
For at least one compound, name, drawing or mass did not settle the structure.

Tested on: βTC6 cells
Assay: Insulin secretion by βTC6 cells, high range insulin Sandwich ELISA kit
Type: cell-based
Description: FIG. 2A is a bar graph showing the in vitro effects on insulin secretion of compound 2a at concentrations of 10^−15, 10^−12, and 10^−9 M, compared to control, in both the absence and presence of 2.8 mM glucose. Results are means of triplicates±SEM; * P<0.05, ** P<0.01, *** P<0.001, from relative basal control.
The secretion of insulin by βTC6 cells was measured using the high range insulin Sandwich ELISA kit. The 2.8 mM glucose gave a mild insulin response around 3000 pmol/l and was used in testing the effect of compounds 2a-d. […]

c1cc(-c2cc[n+](C3CCCCCC3)cc2)ccn1 [compound 6, 1-cycloheptyl-[4,4′-bipyridin]-1-ium chloride]
significantly stimulated: insulin secretion compared to the basal control (absence of glucose, 10^−15, 10^−12, and 10^−9 M tested) | insulin secretion compared to basal insulin secretion (presence of 2.8 mM glucose, 10^−15, 10^−12, and 10^−9 M) | insulin secretion compared to insulin secretion in the presence of glucose (presence of 2.8 mM glucose, 10^−15, 10^−12, and 10^−9 M tested)
